# PubChem BioAssay AID256 (DTP/NCI, 2004)
# The list does not hold the whole screen: it is rich in T/C values a quarter to a half above the control, in often repeated tests (any T/C) and in doses without a T/C. Further doses and runs are listed elsewhere. T/C gives the treated animals as a percentage of the vehicle group. Some doses have a count of surviving animals in place of a T/C: the source files T/C as zero there, which appears to mark a toxic dose or a test without result, not a measured value. Some doses without a T/C left all or most animals alive at the check, yet need not have been tolerated: the source hardly ever lists a survival T/C far under the control, and the zero likely stands for such cases as well. Survivors were counted at the toxicity check, usually on the fifth day, unless a day is given; later deaths do not show. Schedules are NCI's codes, read here as Q, the interval in days (D) or hours (H), X, the number of doses. For survival time, this PubChem deposit counts one and a half times the control or more as active, and values a quarter to a half above the control carry no call in these data; other NCI protocols may use other cut-offs.
# Test system: CD2F1 mice, L1210 leukemia ip, survival T/C
# Assay: NCI In Vivo Anticancer Drug Screen. Data for tumor model L1210 Leukemia (intraperitoneal) in CD2F1 (CDF1) mice
# Conditions: T/C endpoint: mean survival time, higher T/C = longer survival
# How it was run: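 Activity against a transplanted murine tumor was judged by comparing the compound group with a vehicle group. The outcome in the treated animals was divided by that in the controls.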
# [1] = dose: 10.0 mg/kg/injection, schedule: Q01DX009 (ip), vehicle: saline with Tween-80
# [2] = dose: 400.0 mg/kg/injection, schedule: Q01DX009 (ip), vehicle: saline with Tween-80
compound,measurement,setting,value
CCCCNC(=O)C1CC2c3cccc4[nH]cc(c34)CC2N(C)C1 (stereo not given),survivor count,"dose: 200.0 mg/kg/injection, schedule: Q04DX003 (ip), vehicle: saline with Tween-80",3 of 6
O=P(O)(O)OCC1OC(n2cnc3c(NCc4ccco4)ncnc32)C(O)C1O (stereo not given),survivor count,"dose: 200.0 mg/kg/injection, schedule: Q01DX005 (ip), vehicle: water",5 of 6
N=c1nc2c3ccccc3nnn2c2ccccc12,survivor count,"dose: 200.0 mg/kg/injection, schedule: Q01DX001 (ip), vehicle: Klucel (hydroxypropylcellulose) (HPC)",1 of 3
c1ccc([O+](c2ccccc2)c2ccccc2)cc1,survivor count,[1],1 of 6
same,survivor count,"dose: 20.0 mg/kg/injection, schedule: Q01DX009 (ip), vehicle: saline with Tween-80",1 of 6
same,survivor count,"dose: 100.0 mg/kg/injection, schedule: Q01DX009 (ip), vehicle: saline with Tween-80",0 of 6
same,survivor count,"dose: 200.0 mg/kg/injection, schedule: Q01DX009 (ip), vehicle: saline with Tween-80",0 of 6
same,survivor count,[2],0 of 6
COC[C@H]1OC(=O)c2coc3c2[C@@]1(C)C1=C(C3=O)[C@@H]2CCC(=O)[C@@]2(C)C[C@H]1OC(C)=O,survivor count,"dose: 2.5 mg/kg/injection, schedule: Q01DX009 (ip), vehicle: saline with Tween-80",2 of 6
same,survivor count,"dose: 5.0 mg/kg/injection, schedule: Q01DX009 (ip), vehicle: saline with Tween-80",2 of 6
same,survivor count,[1],0 of 6
COC1=CCC2C(=O)C=CC(=O)C2C1 (stereo not given),survivor count,"dose: 400.0 mg/kg/injection, schedule: Q01DX005 (ip), vehicle: Klucel (hydroxypropylcellulose) (HPC)",0 of 6
CNC(=O)OC[C@H]1C2=C(C(=O)C(C)=C(N)C2=O)N2C[C@H]3N[C@H]3[C@@]12OC,T/C,"dose: 27.5 mg/kg/injection, schedule: Q01DX001 (ip), vehicle: carboxymethylcellulose (CMC)",148 % of control
CC(C)(C)C1CC=CCC1 (stereo not given),survivor count,"dose: 400.0 mg/kg/injection, schedule: Q04DX003 (ip), vehicle: saline with Tween-80",0 of 6
CN(C)S(=O)(=O)C(C)(C)c1ccccc1,survivor count,[2],2 of 6
